No constants are given. Whether binding was seen depends on the method and setting. Binding seen in cells or lysates may run through a third protein. Here binding means that the protein was enriched with, or labelled near, the bait; the list need not be complete. No binding means not detected with the bait.
Target: PhastID-tagged Rheb (UniProt Q15382)
Test: proximity labelling; PhastID-Rheb stably expressed in HeLa 229 cells; serum starved 16 h, then 0.9 uM insulin plus 50 uM biotin for 15 min or 1 h; RIPA whole cell lysate, streptavidin magnetic bead pull-down, LC-MS/MS, triplicates; PhastID alone and biotin alone as controls

Protein sequences, listed by entry. Tags and fused reporters are not part of them.
UniProt O75592: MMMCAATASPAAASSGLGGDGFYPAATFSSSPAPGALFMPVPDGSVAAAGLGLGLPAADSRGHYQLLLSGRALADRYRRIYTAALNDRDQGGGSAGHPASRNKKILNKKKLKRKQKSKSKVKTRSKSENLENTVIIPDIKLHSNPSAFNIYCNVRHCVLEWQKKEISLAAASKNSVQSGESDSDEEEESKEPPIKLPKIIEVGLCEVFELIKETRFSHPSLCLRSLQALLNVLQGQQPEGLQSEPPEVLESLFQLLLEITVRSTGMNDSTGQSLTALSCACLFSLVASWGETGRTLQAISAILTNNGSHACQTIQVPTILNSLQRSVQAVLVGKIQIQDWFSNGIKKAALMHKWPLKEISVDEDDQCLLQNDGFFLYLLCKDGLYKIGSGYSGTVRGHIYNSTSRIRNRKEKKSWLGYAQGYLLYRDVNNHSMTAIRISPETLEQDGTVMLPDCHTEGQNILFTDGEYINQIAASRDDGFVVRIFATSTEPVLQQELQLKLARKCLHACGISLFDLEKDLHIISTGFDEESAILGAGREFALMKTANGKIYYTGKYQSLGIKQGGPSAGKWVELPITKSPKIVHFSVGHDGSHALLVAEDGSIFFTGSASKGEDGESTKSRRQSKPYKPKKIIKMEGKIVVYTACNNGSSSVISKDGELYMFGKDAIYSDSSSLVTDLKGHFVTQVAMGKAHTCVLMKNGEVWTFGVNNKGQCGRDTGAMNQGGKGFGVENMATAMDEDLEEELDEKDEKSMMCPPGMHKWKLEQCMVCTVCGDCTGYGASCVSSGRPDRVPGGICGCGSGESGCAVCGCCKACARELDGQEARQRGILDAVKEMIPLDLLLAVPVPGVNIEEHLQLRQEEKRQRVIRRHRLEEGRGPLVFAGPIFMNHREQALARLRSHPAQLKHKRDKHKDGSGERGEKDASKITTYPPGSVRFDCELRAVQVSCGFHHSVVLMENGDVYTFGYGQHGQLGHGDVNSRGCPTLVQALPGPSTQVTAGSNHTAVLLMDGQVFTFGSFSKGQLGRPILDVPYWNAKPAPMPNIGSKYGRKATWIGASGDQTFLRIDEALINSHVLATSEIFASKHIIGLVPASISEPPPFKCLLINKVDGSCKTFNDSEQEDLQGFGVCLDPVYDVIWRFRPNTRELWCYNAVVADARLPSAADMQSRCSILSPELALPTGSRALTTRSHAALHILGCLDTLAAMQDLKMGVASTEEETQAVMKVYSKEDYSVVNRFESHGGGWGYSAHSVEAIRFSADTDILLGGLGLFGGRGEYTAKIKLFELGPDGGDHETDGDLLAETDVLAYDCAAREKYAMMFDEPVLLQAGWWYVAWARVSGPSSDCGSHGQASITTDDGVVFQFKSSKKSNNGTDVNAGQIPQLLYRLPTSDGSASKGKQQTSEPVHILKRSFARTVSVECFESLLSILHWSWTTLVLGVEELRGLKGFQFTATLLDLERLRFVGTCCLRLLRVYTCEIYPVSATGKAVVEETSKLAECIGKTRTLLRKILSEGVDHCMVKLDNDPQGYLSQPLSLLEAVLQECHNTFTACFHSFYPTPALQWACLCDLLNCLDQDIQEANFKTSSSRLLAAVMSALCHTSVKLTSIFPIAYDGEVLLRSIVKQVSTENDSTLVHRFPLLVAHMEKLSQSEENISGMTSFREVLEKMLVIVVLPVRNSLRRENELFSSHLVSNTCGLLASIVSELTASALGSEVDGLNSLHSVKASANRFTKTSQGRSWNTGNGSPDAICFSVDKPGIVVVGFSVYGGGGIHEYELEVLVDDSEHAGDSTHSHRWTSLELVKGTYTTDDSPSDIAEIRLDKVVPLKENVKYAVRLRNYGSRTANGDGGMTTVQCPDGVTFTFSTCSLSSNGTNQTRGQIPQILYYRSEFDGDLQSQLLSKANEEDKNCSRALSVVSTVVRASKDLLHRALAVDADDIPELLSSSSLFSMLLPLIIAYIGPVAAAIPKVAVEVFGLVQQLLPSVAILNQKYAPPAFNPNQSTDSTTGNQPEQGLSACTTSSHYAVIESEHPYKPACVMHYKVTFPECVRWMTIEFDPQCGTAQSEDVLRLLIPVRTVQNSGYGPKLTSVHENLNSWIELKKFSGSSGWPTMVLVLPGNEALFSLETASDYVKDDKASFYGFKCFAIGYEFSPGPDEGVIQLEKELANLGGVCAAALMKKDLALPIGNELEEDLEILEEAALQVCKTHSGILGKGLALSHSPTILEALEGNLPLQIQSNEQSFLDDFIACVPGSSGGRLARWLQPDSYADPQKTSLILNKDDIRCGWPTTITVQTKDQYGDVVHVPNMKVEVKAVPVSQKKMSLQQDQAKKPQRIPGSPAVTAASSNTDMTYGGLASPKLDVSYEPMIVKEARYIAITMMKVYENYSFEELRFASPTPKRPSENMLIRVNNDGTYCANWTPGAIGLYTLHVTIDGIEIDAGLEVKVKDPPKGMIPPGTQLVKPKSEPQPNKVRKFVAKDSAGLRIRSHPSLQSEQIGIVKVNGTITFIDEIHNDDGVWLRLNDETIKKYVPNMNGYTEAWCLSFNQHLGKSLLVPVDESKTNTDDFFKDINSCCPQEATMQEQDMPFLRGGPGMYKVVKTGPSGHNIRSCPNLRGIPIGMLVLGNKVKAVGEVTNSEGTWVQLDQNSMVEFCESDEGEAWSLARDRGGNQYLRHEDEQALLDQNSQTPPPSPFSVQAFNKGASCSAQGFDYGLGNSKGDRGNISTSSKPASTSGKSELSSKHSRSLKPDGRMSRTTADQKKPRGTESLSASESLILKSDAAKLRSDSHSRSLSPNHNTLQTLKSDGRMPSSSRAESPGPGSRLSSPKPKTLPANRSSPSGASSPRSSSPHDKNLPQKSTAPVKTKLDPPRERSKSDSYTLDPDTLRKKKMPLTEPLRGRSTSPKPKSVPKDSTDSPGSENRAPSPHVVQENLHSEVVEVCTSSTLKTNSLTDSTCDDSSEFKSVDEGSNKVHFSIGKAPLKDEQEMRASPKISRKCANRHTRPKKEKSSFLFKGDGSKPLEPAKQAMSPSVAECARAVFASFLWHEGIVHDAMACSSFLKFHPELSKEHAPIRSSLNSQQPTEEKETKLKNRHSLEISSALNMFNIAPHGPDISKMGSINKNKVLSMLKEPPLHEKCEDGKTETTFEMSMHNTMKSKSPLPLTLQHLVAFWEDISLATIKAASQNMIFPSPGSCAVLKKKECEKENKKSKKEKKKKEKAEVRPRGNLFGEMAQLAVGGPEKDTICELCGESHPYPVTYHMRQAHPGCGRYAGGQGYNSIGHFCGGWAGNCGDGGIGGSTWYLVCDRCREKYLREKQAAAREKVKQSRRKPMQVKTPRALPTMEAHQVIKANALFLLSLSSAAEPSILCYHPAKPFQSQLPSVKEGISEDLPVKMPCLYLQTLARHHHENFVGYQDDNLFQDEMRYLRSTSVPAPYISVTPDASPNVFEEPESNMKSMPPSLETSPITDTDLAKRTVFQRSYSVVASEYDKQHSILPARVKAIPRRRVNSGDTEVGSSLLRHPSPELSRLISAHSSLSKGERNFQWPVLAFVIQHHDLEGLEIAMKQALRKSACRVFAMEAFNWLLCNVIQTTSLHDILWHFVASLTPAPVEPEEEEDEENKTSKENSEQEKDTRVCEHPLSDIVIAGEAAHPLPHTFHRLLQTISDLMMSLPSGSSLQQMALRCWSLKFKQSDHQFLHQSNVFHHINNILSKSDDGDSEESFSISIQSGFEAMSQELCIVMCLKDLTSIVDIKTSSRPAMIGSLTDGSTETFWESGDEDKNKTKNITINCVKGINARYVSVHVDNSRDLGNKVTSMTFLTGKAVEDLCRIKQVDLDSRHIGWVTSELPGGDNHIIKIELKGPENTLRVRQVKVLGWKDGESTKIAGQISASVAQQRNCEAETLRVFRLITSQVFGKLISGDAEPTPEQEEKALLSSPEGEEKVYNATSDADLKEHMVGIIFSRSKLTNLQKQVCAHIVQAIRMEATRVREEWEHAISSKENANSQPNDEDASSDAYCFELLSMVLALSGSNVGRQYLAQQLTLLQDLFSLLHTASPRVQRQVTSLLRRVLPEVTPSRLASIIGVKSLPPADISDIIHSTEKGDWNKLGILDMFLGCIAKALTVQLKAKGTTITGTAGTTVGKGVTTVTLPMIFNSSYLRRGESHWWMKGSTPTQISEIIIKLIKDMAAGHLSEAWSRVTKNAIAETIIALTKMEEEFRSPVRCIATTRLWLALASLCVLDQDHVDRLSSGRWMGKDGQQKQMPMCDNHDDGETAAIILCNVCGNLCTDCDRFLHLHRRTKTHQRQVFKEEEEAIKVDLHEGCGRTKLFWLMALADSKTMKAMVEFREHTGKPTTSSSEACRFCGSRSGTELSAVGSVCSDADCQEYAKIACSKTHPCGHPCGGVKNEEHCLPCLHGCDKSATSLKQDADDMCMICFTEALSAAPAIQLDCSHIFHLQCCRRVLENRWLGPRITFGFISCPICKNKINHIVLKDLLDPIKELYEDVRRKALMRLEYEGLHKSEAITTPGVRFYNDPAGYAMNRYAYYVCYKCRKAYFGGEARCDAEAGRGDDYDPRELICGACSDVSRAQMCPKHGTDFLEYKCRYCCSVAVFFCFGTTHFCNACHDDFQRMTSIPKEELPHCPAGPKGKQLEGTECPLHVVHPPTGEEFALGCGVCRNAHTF

| Substance | binding |
| --- | --- |
| PAM (from UniProt O75592 1-4678) | no binding |
| ATP6AP1 (endogenous, HeLa 229) (from UniProt Q15904 42-470) | binds |
| RAB7A (from UniProt P51149 1-207) | binds |
